# Source: patent US11554097B2, “Recombinant production of hybrid lipid-biopolymer materials that self-assemble and encapsulate agents” (Duke University, priority 2017, dated 2023)
# Some results were stated once for a whole list of compounds, not compound by compound.
# Test: Drug encapsulation: efficiency and loading capacity
# Type: physicochemical
# Conditions: encapsulated in M-ELP90A,120 and M-ELP90A,80 micelles
smiles,measurement,value
"CC(=O)O[C@H]1C(=O)[C@@]2(C)[C@H]([C@H](OC(=O)c3ccccc3)[C@]3(O)C[C@H](OC(=O)[C@H](O)[C@@H](NC(=O)c4ccccc4)c4ccccc4)C(C)=C1C3(C)C)[C@]1(OC(C)=O)CO[C@@H]1C[C@@H]2O [PTX, paclitaxel]",encapsulation efficiency,3-5%
same,loading capacity,1-3%
